Drawing on PMC6520397, this text covers binding for one substance.

Sequences of proteins named here, by UniProt entry; tags and fusion partners are left off. A change or cut given only in a name is not applied to a line headed by its entry. A line that says so, or that is headed by a name, gives the form on record, which may keep a tag or linker.
BIR3 (241-356) C351S mutant (P98170, form named): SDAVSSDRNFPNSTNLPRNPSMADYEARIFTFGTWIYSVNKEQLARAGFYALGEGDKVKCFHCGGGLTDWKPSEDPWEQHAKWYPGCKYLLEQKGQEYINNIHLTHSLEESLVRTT

These are yes or no findings as the source states them, for the method shown.

Assay [1] addresses BIR3 (241-356) C351S mutant (UniProt P98170). The assay is described as follows: SEC; 0.5 mM BIR3 or BIR3 C351S mixed with one equivalent of Cu(I) as [Cu(CH3CN)4][PF6] or Cu(II)-VC (copper sulfate with ascorbic acid 1:9), 20 mM Bis-Tris pH 6.5, 30 min at room temperature; fractions run on SDS-PAGE; both purified.
Assay [2] shares this target. The assay is described as follows: SEC; BIR3 or BIR3 C351S mixed with one equivalent of CuSO4 (Cu(II)), 20 mM Bis-Tris pH 6.5, 30 min at room temperature, supernatant on a gel-filtration column; fractions identified by MALDI-TOF and SDS-PAGE; 0.1 mM protein by the legend of Figure 3, 0.5 mM by the methods; both purified.

Consider “BIR3 (241-356) C351S mutant (from UniProt P98170 241-356) (domain or fragment)”, for which the binding entry in assay [1] is recorded as “no binding (tested: 0.5 mM)”; in assay [2], “no binding (tested: 0.1 mM)”.
